Record: PubChem BioAssay AID1259254 (NCATS, 2017)

Test: 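Genome-wide screen for genes that prevent DNA re-replication in cancer cells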 (primary screen)
Cells: human HCT116 colorectal cancer cells
Knock-down reagent: single siRNA against human genes
Timing: 3 days
Read-out: 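Nuclei stained with Hoechst and imaged; cell-cycle phase assigned by DNA content; G2 share scaled per plate, non-targeting siRNA 0%, GMNN siRNA 100%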
Direction: G2 robust z-score: higher = more G2 cells, more excess DNA replication
Active means: 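Active siRNAs have a G2 robust z of 5 or more median absolute deviations over the median, which in these data means about 38% or higher of GMNN control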
The deposit covers about 59,000 reagents; shown is an unselected part. About 1,550 of them (2.6%) count as active. 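G2 share is only a proxy for re-replication; each gene was hit by three separate siRNAs, and active genes were retested.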 Entries without a mark were called inactive. The numbers tell different reagents against one gene apart. Not all columns of the deposit are shown. Not stated in the record: the amount of reagent.

For CKAP5 (GeneID 9793) #1, the values are G2 robust z-score 4.76.
Knock-down of CKAP5 (GeneID 9793) #2 gave: G2 robust z-score 1.05.
Knock-down of CKAP5 (GeneID 9793) #3 came out at: G2 robust z-score 1.34.
Depletion of HSPA1L (GeneID 3305) #1 came out at: G2 robust z-score 1.5.
HSPA1L (GeneID 3305) #2 gave G2 robust z-score 1.48.
Against HSPA1L (GeneID 3305) #3, the entry reads G2 robust z-score -0.0137.
PPFIA4 (GeneID 8497) #1 gave G2 robust z-score 4.67.
Against PPFIA4 (GeneID 8497) #2, the values are G2 robust z-score -0.739.
PPFIA4 (GeneID 8497) #3 gave G2 robust z-score -0.444.
For CELF5 (GeneID 60680) #1, the entry reads G2 robust z-score 0.464.
Against CELF5 (GeneID 60680) #2 the deposit lists G2 robust z-score -0.532.
After knock-down of CELF5 (GeneID 60680) #3 the results were G2 robust z-score 0.647.
Against DEFB123 (GeneID 245936) #1, the values are G2 robust z-score 1.13.
DEFB123 (GeneID 245936) #2 scored G2 robust z-score 0.934.
DEFB123 (GeneID 245936) #3 scored G2 robust z-score -0.383.
Against GPN1 (GeneID 11321) #1 the deposit lists G2 robust z-score 0.418.
GPN1 (GeneID 11321) #2 scored G2 robust z-score 7.06 (active).
Silencing of GPN1 (GeneID 11321) #3 came out at: G2 robust z-score 1.52.
